These results are taken from PubChem BioAssay AID2685 (National Center for Advancing Translational Sciences (NCATS), 2010).

Structures are written as SMILES. The list shows a part of the results. These are further read-outs of the screen, such as a control signal, another cell line or another target. No call is given for them. Compounds called inactive in the main read-out are mostly missing here. Potencies come from curve fits of mixed quality, noted in brackets.

The test can be described thus: qHTS Assay for Lipid Storage Modulators in Drosophila S3 Cells.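 For cell number change: cells counted by Cell Tracker Red CMTPX staining in the red channel.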 The settings on record: BODIPY lipid droplet fluorescence, 18-24 h; for cell number change: measured here: cell count max response, cells fed with added oleic acid. In a few lines:
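Drosophila S3 cells loaded with oleic acid (400 uM, as added) and compounds at several concentrations; lipid droplets imaged by 488-nm laser-scanning cytometry, 500–530 nm intensity and object ratio to cell channel. Percent activity normalized to 20 uM Triacsin C.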
Background: In qHTS, concentration-response curves come from the screen itself.

The mark [1] stands for this setting: measured here: lipid fluorescence (Fed channel) AC50, cells fed with added oleic acid.
Setting [2] is: measured here: cell number channel AC50, cells fed with added oleic acid.

By AC50 is commonly meant the concentration giving half of the maximal activity seen. For `Cc1ccccc1-n1c(-c2ccc(Cl)cc2)cnc1SCC(=O)NC1CCS(=O)(=O)C1` (configuration not stated), the cell number change is -13.7%. Moreover, the AC50 under setting [1] was 20600 nM [falling, partial curve, poor fit].

Consider `Cn1cc(CNC(=O)c2cc(COc3ccc4c(c3)CCCC4)on2)cn1`, for which the cell number change is -0.99%. Also, the AC50 under setting [1] is 6510 nM [rising, single point].

On to `Cc1cc(Cl)ccc1OCC(=O)NNC(=O)C1CCN(c2ncnc3sc(C)c(C)c23)CC1`, for which the cell number change is 28.1%. The AC50 under setting [1] is 4.61 nM [falling, full curve, poor fit].

Regarding `Cc1ccc(OCC(=O)N/N=C\c2cn(Cc3ccccc3)c3ccccc23)cc1C`, the cell number change worked out at 4.29%. Besides, the AC50 under setting [1] is 2060 nM [rising, full curve].

For `COc1cc(OC)cc(-c2c(-c3cccs3)c3cc(-c4ccc(OC)nc4)ccc3n2C)c1`, the cell number change was -9.77%. The half-maximal activity concentration (AC50) under setting [2] was 1160 nM [falling, single point]. The AC50 under setting [1] was 1160 nM [falling, single point].

For `Cc1cc(NC(=O)C2C3C=CC(C3)C2C(=O)O)no1` (configuration not stated), the cell number change was 6.93%. Under setting [1], the AC50 was 29100 nM [falling, single point].

For the compound `CCc1nnc(NC(=O)CSc2nc(N)c(NC(=O)c3ccc(OC)cc3)c(=O)[nH]2)s1`, the cell number change worked out at 13.9%. In addition, the AC50 under setting [2] was 146 nM [rising, full curve, poor fit]. In addition, under setting [1], the AC50 was 29100 nM [rising, single point].

`COc1ccccc1Oc1ccc2c(c1)C(=O)N(CC(=O)O)C2=O`: the cell number change was 26.5%. Also, under setting [1], the AC50 was 14600 nM [rising, partial curve, poor fit].

With `COc1ccc(C2=CC(c3sccc3C)n3nnnc3N2)cc1` (configuration not stated), the cell number change was -30.2%. Further, the AC50 under setting [2] is 146 nM [falling, full curve, poor fit].

As to `O=S(=O)(Oc1ccccc1C(=S)N1CCOCC1)c1ccc(Cl)cc1`, the cell number change was -37%. The AC50 under setting [2] is 651 nM [falling, full curve]. Under setting [1], the concentration at half-maximal activity (AC50) is 461 nM [falling, full curve].

For `COc1cc(C(=O)O)c2ccccc2n1`, the cell number change was 4.7%. Also, the AC50 under setting [1] is 29100 nM [rising, single point].

As for `COc1ccc(C=O)c(OC)c1`, the AC50 under setting [2] is 4.61 nM [rising, full curve, poor fit].

Regarding `O=C(CN1C(=O)S/C(=C\c2cccs2)C1=O)Nc1ccc(O)cc1C(=O)O`, the cell number change is -1.42%. In addition, the concentration at half-maximal activity (AC50) under setting [2] was 1460 nM [falling, partial curve]. In addition, under setting [1], the AC50 was 73.1 nM [falling, full curve, poor fit].

As to `CN(CCO)C(=O)C(c1ccccc1)c1ccccc1`, the cell number change is -6.51%.

`Cc1ccc(C(=O)NC(=C(Cl)Cl)S(=O)(=O)c2ccccc2)cc1`: the cell number change is -14.3%. In addition, the AC50 under setting [1] was 16400 nM [falling, single point].
